Data source: PubChem BioAssay AID720505 (Drosophila RNAi Screening Center, 2013)
In all, the deposit lists about 20,000 reagents; below is a random part of those that have a named target and a result. Of all reagents, about 2,100 (10%) were called active. 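Raw plate signals without normalisation; calls rest on control-based scores that were not deposited; replicate 2 separates called from uncalled poorly.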 A plus sign joins genes that one reagent is predicted to hit. No sequences are given here. The record does not give: the amount of reagent, the time to read-out.

Test: 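Genes needed for store-operated calcium entry in fly cells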 (primary screen)
Cell system: Drosophila S2R+ cells
Reagent: long dsRNA against Drosophila genes
Conditions: thapsigargin (2 µM) in calcium-free buffer to empty internal stores, then 2 mM calcium added back
Measurement: 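Stores emptied by 2 µM thapsigargin without calcium, then 2 mM calcium re-added; fluo-4 fluorescence followed by FLIPR in 384-well plates, per-well averaged endpoint, raw; two screen passes, some wells retested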
Direction: calcium signal and retest calcium signal: higher = more calcium entry after store depletion
Call rule: 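About 1500 genes called as lowering calcium entry, by varying amounts, judged against per-plate control wells with STIM1 as positive and Rho1 as negative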
Meaning of the calls: active = called as lowering calcium entry; inactive = not called

| Gene | dsRNA | calcium signal, replicate 1 | calcium signal, replicate 2 | retest calcium signal, replicate 1 | retest calcium signal, replicate 2 | Call |
| --- | --- | --- | --- | --- | --- | --- |
| gudu | DRSC02820 | 152 | 77.3 | – | – | inactive |
| CG42518 + MED9 | DRSC06917 | 115 | 131 | – | – | inactive |
| CG4669 | DRSC10440 | 75.3 | 115 | – | – | inactive |
| CG34200 | DRSC04804 | 104 | 96.9 | – | – | inactive |
| Gnptab | DRSC07057 | 161 | 168 | – | – | inactive |
| veli | DRSC16276 | 194 | 139 | – | – | inactive |
| CG16741 | DRSC06622 | 151 | 92.7 | – | – | inactive |
| Cyp9b1 | DRSC07389 | 160 | 200 | – | – | inactive |
| Herc4 | DRSC08631 | 95.2 | 105 | – | – | inactive |
| ocm | DRSC04360 | 131 | 77 | – | – | inactive |
| CG8112 | DRSC16377 | 136 | 195 | – | – | inactive |
| CG31211 | DRSC14953 | 113 | 139 | 143 | 133 | inactive |
| CG31211 | DRSC15344 | 161 | 83.5 | – | – | inactive |
| CG31211 | DRSC21478 | 145 | 95.7 | – | – | inactive |
| lmgA + lmgB | DRSC03566 | 198 | 136 | – | – | inactive |
| pot | DRSC19850 | 191 | 140 | – | – | inactive |
| EndoG | DRSC07292 | 137 | 200 | 104 | 120 | inactive |
| EndoG | DRSC22746 | 164 | 215 | – | – | inactive |
| CG17186 | DRSC15180 | 168 | 143 | – | – | inactive |
| Spn28Db | DRSC22033 | 112 | 267 | – | – | inactive |
| CG33110 | DRSC14694 | 179 | 81.6 | – | – | inactive |
| CG33110 | DRSC16137 | 169 | 99.9 | – | – | inactive |
| CG17019 | DRSC06642 | 183 | 115 | – | – | inactive |
| l(3)L1231 | DRSC16323 | 158 | 150 | – | – | inactive |
| Cyp311a1 | DRSC20239 | 96.5 | 98.3 | – | – | inactive |
| lobo | DRSC14662 | 174 | 124 | – | – | inactive |
| lobo | DRSC14663 | 175 | 198 | – | – | inactive |
| CG31269 | DRSC15744 | 164 | 173 | – | – | inactive |
| Prosalpha4T2 | DRSC04643 | 142 | 198 | – | – | inactive |
| CG7352 | DRSC16233 | 150 | 152 | – | – | inactive |
| Dys + snoRNA:Me18S-A1374 | DRSC16232 | 134 | 164 | – | – | inactive |
| CG31343 | DRSC15887 | 131 | 177 | – | – | inactive |
| CG7137 | DRSC07017 | 103 | 83.6 | – | – | inactive |
| CG15425 | DRSC00440 | 92.3 | 103 | – | – | inactive |
| spz | DRSC17065 | 115 | 187 | – | – | inactive |
| Dhc64C | DRSC08656 | 79.5 | 88.4 | – | – | inactive |
| CG42709 | DRSC10277 | 155 | 95.5 | – | – | inactive |
| CG14866 | DRSC14989 | 114 | 170 | – | – | inactive |
| Claspin | DRSC08308 | 121 | 105 | – | – | inactive |
| CG3635 | DRSC03729 | 104 | 79.6 | – | – | inactive |
| blanks | DRSC09757 | 89.4 | 50.9 | – | – | inactive |
| CG5126 | DRSC00680 | 145 | 218 | – | – | inactive |
| CG14854 | DRSC14978 | 107 | 153 | – | – | inactive |
| Sptr | DRSC18719 | 118 | 82.9 | – | – | inactive |
| Lsd-2 | DRSC20143 | 125 | 98 | – | – | inactive |
| CG18870 | DRSC04313 | 211 | 134 | – | – | inactive |
| Prm | DRSC11255 | 79.8 | 83.2 | – | – | inactive |
| CG32795 | DRSC18609 | 121 | 188 | – | – | inactive |
| CG32795 | DRSC18610 | 111 | 161 | – | – | inactive |
| jub | DRSC19367 | 103 | 74.7 | – | – | inactive |
| CG31103 | DRSC22324 | 109 | 200 | – | – | inactive |
| Pdp | DRSC17825 | 116 | 127 | – | – | inactive |
| spartin | DRSC12187 | 90.6 | 96.2 | – | – | active |
| Tango10 | DRSC19807 | 185 | 128 | – | – | inactive |
| CG32572 | DRSC19525 | 109 | 145 | – | – | inactive |
| CG32572 | DRSC19526 | 105 | 165 | – | – | inactive |
| kl-5 (retired record) | DRSC20707 | 65.6 | 176 | – | – | active |
| kl-5 (retired record) | DRSC20736 | 56.4 | 9608 | – | – | active |
| kl-5 (retired record) | DRSC20773 | 106 | 8840 | – | – | inactive |
| kl-5 (retired record) | DRSC21161 | 66.2 | 98.1 | – | – | inactive |
| CG10713 | DRSC09786 | 83.1 | 103 | – | – | inactive |
| CG16734 | DRSC15143 | 92.8 | 211 | – | – | inactive |
| CG13126 | DRSC02222 | 190 | 161 | – | – | inactive |
| Bka | DRSC02757 | 159 | 165 | – | – | inactive |
| CG14903 | DRSC15024 | 98.9 | 83.8 | – | – | inactive |
| Gr43a | DRSC06658 | 132 | 174 | – | – | inactive |
| Yp2 | DRSC18732 | 152 | 111 | – | – | inactive |
| CAH16 | DRSC15371 | 163 | 153 | – | – | inactive |
| Wnt5 | DRSC20300 | 73.8 | 110 | – | – | inactive |
| CG17681 | DRSC02632 | 79.4 | 117 | – | – | active |
| CG11035 | DRSC14287 | 109 | 163 | – | – | inactive |
| spn-B | DRSC17063 | 75.3 | 85.4 | – | – | active |
| CycD | DRSC20233 | 56.4 | 106 | – | – | active |
| CG11069 | DRSC14289 | 178 | 252 | – | – | inactive |
| CG14321 | DRSC14800 | 60.1 | 84.7 | – | – | active |
| CG33648 | DRSC01387 | 74.7 | 122 | – | – | inactive |
| Ugt301D1 | DRSC02021 | 90 | 88.9 | – | – | inactive |
| CG10301 | DRSC14226 | 165 | 129 | – | – | inactive |
| Trs33 | DRSC15990 | 114 | 166 | – | – | inactive |
| Desi | DRSC14909 | 106 | 97.6 | – | – | inactive |
| CG14839 | DRSC14963 | 112 | 117 | 98.1 | 100 | inactive |
| Or45b | DRSC07488 | 153 | 184 | – | – | inactive |
| Usp2 | DRSC20590 | 89.8 | 12748 | – | – | inactive |
| Usp2 | DRSC20632 | 172 | 118 | – | – | inactive |
| Usp2 | DRSC20633 | 127 | 97.2 | – | – | inactive |
| ACC | DRSC06059 | 123 | 138 | – | – | inactive |
| ACC | DRSC07249 | 176 | 171 | – | – | inactive |
| scw | DRSC01711 | 142 | 114 | – | – | inactive |
| scw | DRSC21252 | 158 | 101 | – | – | inactive |
| homer | DRSC03547 | 79.7 | 112 | – | – | inactive |
| fray | DRSC16950 | 136 | 135 | – | – | inactive |
| CG2652 | DRSC18501 | 121 | 163 | 110 | 86.7 | inactive |
| CG2652 | DRSC22576 | 159 | 191 | – | – | inactive |
| Tim17b1 | DRSC12179 | 107 | 156 | – | – | inactive |
| Sodh1 | DRSC12605 | 99.6 | 141 | – | – | inactive |
| CG16863 | DRSC01892 | 153 | 150 | – | – | inactive |
| CG9701 | DRSC11093 | 137 | 107 | – | – | inactive |
| ems | DRSC16941 | 115 | 197 | – | – | inactive |
| tai | DRSC02207 | 182 | 173 | – | – | inactive |
| tai | DRSC02673 | 188 | 162 | – | – | inactive |
| TwdlV | DRSC12226 | 122 | 140 | – | – | inactive |
| Sap47 | DRSC16850 | 84.2 | 156 | – | – | inactive |
| CG18368 | DRSC06731 | 111 | 199 | – | – | inactive |
| CG8136 | DRSC16385 | 108 | 138 | – | – | inactive |
| Npc2g | DRSC14296 | 137 | 130 | – | – | inactive |
| eys | DRSC00113 | 112 | 95.4 | – | – | inactive |
| eys | DRSC00402 | 151 | 118 | – | – | inactive |
| eys | DRSC00403 | 192 | 135 | – | – | inactive |
| eys | DRSC00695 | 63 | 163 | – | – | active |
